Results are given in words; binding and its absence hold for the method and conditions named. For part of these data: Binding seen in cells or lysates may run through a third protein. Some results given as binding are weak or reduced against the parent protein; the word gives no strength. For part of these data: Sequences can lack the tags named with a protein.

Amino acid sequences for entries named in this document (tags omitted). A change or cut given only in a name is not applied to a line headed by its entry.
UniProt Q96EB6: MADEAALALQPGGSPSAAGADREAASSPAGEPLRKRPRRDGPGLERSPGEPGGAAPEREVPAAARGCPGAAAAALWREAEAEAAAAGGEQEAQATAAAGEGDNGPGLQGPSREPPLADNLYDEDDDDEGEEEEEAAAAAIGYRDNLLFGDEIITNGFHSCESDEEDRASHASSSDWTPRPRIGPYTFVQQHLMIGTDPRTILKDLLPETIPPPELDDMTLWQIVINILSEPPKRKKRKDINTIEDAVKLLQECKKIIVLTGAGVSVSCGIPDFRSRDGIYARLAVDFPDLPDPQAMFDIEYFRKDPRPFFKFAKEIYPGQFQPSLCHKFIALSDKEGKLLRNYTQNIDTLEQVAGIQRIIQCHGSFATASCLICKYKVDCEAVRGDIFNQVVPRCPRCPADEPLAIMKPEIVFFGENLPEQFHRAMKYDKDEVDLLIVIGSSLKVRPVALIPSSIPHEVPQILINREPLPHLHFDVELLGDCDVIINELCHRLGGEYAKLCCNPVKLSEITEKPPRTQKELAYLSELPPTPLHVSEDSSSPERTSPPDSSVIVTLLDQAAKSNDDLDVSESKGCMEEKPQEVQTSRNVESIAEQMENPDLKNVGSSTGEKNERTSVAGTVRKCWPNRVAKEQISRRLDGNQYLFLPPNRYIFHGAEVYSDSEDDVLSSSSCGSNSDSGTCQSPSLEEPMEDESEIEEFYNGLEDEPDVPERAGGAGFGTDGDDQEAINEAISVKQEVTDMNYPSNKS

Assay [1] deals with SIRT1, endogenous in HeLa-CHFR cells (human (endogenous in HeLa)) (UniProt Q96EB6). Put plainly: co-IP; HeLa-CHFR stable cell lysates immunoprecipitated with anti-CHFR or anti-SIRT1 (controls: preimmune serum or IgG), immunoblot; in Fig. 4C cells were mock-treated or treated with 1 mM H2O2 for 6 h before the anti-SIRT1 IP.
The target of assay [2] is SIRT1 (transiently transfected conditions, Supplementary Fig. S1B) (UniProt Q96EB6). Put plainly: co-IP; transiently transfected conditions with the CHFR-I306A mutant, with or without H2O2 treatment (Supplementary Fig. S1B).
A further assay has as its target GST-SIRT1 (UniProt Q96EB6). In words: pull-down; GST-SIRT1 (1 μg) and His-CHFR (1 μg) incubated with Glutathione Sepharose 4 Fast Flow for 1 h at 4 °C; immunoblot with anti-CHFR and anti-GST; both purified.

B1: CHFR in HeLa-CHFR stable cells (enzyme, UniProt Q96EP1 1-664)
chain: MERPEEGKQSPPPQPWGRLLRLGAEEGEPHVLLRKREWTIGRRRGCDLSFPSNKLVSGDHCRIVVDEKSGQVTLEDTSTSGTVINKLKVVKKQTCPLQTGDVIYLVYRKNEPEHNVAYLYESLSEKQGMTQESFEANKENVFHGTKDTSGAGAGRGADPRVPPSSPATQVCFEEPQPSTSTSDLFPTASASSTEPSPAGRERSSSCGSGGGGISPKGSGPSVASDEVSSFASALPDRKTASFSSLEPQDQEDLEPVKKKMRGDGDLDLNGQLLVAQPRRNAQTVHEDVRAAAGKPDKMEETLTCIICQDLLHDCVSLQPCMHTFCAACYSGWMERSSLCPTCRCPVERICKNHILNNLVEAYLIQHPDKSRSEEDVQSMDARNKITQDMLQPKVRRSFSDEEGSSEDLLELSDVDSESSDISQPYVVCRQCPEYRRQAAQPPHCPAPEGEPGAPQALGDAPSTSVSLTTAVQDYVCPLQGSHALCTCCFQPMPDRRAEREQDPRVAPQQCAVCLQPFCHLYWGCTRTGCYGCLAPFCELNLGDKCLDGVLNNNSYESDILKNYLATRGLTWKNMLTESLVALQRGVFLLSDYRVTGDTVLCYCCGLRSFRELTYQYRQNIPASELPVAVTSRPDCYWGRNCRTQVKAHHAMKFNHICEQTRFKN
Turning to B1, the binding result in assay [1] was “binds”.

B2: CHFR-I306A (enzyme, UniProt Q96EP1 1-664)
chain: MERPEEGKQSPPPQPWGRLLRLGAEEGEPHVLLRKREWTIGRRRGCDLSFPSNKLVSGDHCRIVVDEKSGQVTLEDTSTSGTVINKLKVVKKQTCPLQTGDVIYLVYRKNEPEHNVAYLYESLSEKQGMTQESFEANKENVFHGTKDTSGAGAGRGADPRVPPSSPATQVCFEEPQPSTSTSDLFPTASASSTEPSPAGRERSSSCGSGGGGISPKGSGPSVASDEVSSFASALPDRKTASFSSLEPQDQEDLEPVKKKMRGDGDLDLNGQLLVAQPRRNAQTVHEDVRAAAGKPDKMEETLTCIACQDLLHDCVSLQPCMHTFCAACYSGWMERSSLCPTCRCPVERICKNHILNNLVEAYLIQHPDKSRSEEDVQSMDARNKITQDMLQPKVRRSFSDEEGSSEDLLELSDVDSESSDISQPYVVCRQCPEYRRQAAQPPHCPAPEGEPGAPQALGDAPSTSVSLTTAVQDYVCPLQGSHALCTCCFQPMPDRRAEREQDPRVAPQQCAVCLQPFCHLYWGCTRTGCYGCLAPFCELNLGDKCLDGVLNNNSYESDILKNYLATRGLTWKNMLTESLVALQRGVFLLSDYRVTGDTVLCYCCGLRSFRELTYQYRQNIPASELPVAVTSRPDCYWGRNCRTQVKAHHAMKFNHICEQTRFKN
Regarding B2, the binding result in assay [2] was “binds”.

B3: His-CHFR (enzyme, UniProt Q96EP1 1-664)
chain: MERPEEGKQSPPPQPWGRLLRLGAEEGEPHVLLRKREWTIGRRRGCDLSFPSNKLVSGDHCRIVVDEKSGQVTLEDTSTSGTVINKLKVVKKQTCPLQTGDVIYLVYRKNEPEHNVAYLYESLSEKQGMTQESFEANKENVFHGTKDTSGAGAGRGADPRVPPSSPATQVCFEEPQPSTSTSDLFPTASASSTEPSPAGRERSSSCGSGGGGISPKGSGPSVASDEVSSFASALPDRKTASFSSLEPQDQEDLEPVKKKMRGDGDLDLNGQLLVAQPRRNAQTVHEDVRAAAGKPDKMEETLTCIICQDLLHDCVSLQPCMHTFCAACYSGWMERSSLCPTCRCPVERICKNHILNNLVEAYLIQHPDKSRSEEDVQSMDARNKITQDMLQPKVRRSFSDEEGSSEDLLELSDVDSESSDISQPYVVCRQCPEYRRQAAQPPHCPAPEGEPGAPQALGDAPSTSVSLTTAVQDYVCPLQGSHALCTCCFQPMPDRRAEREQDPRVAPQQCAVCLQPFCHLYWGCTRTGCYGCLAPFCELNLGDKCLDGVLNNNSYESDILKNYLATRGLTWKNMLTESLVALQRGVFLLSDYRVTGDTVLCYCCGLRSFRELTYQYRQNIPASELPVAVTSRPDCYWGRNCRTQVKAHHAMKFNHICEQTRFKN
For the molecule B3, the binding entry with GST-SIRT1 is listed as “binds”.
